Test results taken from paper PMC9558048.
No constants are given. Whether binding was seen depends on the method and setting. In cells and extracts the contact can be indirect. Some entries that bind do so weakly or less than the wild type. Tags and fused reporters may be left off the sequences shown.

Assays:
Assay in all cases: pull-down; MBP-Isc10 forms coexpressed with Smk1, Ssp2^KAD-GST and Cak1 in E. coli BL-21 DE3; soluble extract bound to amylose beads at 4 °C, washed with lysis buffer (25 mM Tris-Cl pH 7.4, 5 mM MgCl2, 300 mM NaCl, 1 mM DTT, 0.5% NP-40); bound Smk1 and Ssp2 (GST) detected by immunoblot
[1] = biological target: T1, MBP-Isc10^1-170 (S. cerevisiae) (UniProt P32645)
T1 sequence: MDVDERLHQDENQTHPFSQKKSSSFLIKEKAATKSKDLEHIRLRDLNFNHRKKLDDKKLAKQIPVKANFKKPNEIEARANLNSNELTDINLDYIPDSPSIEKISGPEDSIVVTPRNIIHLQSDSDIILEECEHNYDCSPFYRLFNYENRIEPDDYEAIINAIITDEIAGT

[2] = biological target: T2, MBP-Isc10^111-203 (S. cerevisiae) (UniProt P32645)
T2 sequence: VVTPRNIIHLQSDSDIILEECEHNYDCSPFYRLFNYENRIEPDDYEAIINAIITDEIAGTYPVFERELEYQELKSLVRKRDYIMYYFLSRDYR

[3] = biological target: T3, MBP-Isc10^1-203 (S. cerevisiae) (UniProt P32645)
T3 sequence: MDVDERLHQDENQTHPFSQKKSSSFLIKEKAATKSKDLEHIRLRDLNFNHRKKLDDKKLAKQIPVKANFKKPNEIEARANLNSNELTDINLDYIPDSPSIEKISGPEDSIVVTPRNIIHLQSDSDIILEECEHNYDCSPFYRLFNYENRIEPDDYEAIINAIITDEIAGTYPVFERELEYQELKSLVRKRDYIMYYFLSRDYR

[4] = biological target: T4, MBP-Isc10-S97A (S. cerevisiae) (UniProt P32645)
T4 sequence: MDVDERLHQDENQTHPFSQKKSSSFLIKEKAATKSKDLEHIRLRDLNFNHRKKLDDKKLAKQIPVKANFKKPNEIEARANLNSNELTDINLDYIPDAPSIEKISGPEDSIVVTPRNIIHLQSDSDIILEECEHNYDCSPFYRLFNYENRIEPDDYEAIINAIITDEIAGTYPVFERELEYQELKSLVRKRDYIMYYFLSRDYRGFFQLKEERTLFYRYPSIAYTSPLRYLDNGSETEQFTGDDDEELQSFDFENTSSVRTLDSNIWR

[5] = biological target: T5, MBP-Isc10^181-267 (S. cerevisiae) (UniProt P32645)
T5 sequence: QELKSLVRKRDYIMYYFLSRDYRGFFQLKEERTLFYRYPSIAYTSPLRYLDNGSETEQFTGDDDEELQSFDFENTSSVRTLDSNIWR

[6] = biological target: T6, MBP-Isc10^1-140 (S. cerevisiae) (UniProt P32645)
T6 sequence: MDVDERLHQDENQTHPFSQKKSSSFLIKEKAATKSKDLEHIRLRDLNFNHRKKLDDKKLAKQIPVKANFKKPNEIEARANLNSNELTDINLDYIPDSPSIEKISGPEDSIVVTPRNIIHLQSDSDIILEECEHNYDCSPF

[7] = biological target: T7, MBP-Isc10^1-246 (S. cerevisiae) (UniProt P32645)
T7 sequence: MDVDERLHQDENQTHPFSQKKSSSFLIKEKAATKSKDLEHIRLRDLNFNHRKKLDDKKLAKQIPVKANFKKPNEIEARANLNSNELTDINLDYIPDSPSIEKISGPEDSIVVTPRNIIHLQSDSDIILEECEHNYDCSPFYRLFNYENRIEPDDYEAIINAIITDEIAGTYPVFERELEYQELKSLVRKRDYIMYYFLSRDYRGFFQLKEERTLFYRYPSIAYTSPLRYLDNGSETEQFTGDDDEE

[8] = biological target: T8, MBP-Isc10^111-267 (S. cerevisiae) (UniProt P32645)
T8 sequence: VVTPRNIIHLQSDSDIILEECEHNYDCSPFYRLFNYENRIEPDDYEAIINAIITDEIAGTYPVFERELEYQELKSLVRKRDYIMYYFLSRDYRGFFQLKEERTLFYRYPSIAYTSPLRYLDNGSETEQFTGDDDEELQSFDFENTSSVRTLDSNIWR

B1: Smk1 (enzyme, UniProt P41808 1-388)
chain: MNCTLTDNTRAINVASNLGAPQQRTIFAKERISIPGYYEIIQFLGKGAYGTVCSVKFKGRSPAARIAVKKISNIFNKEILLKRAIRELKFMNFFKGHKNIVNLIDLEIVTSSPYDGLYCYQELIDYDLAKVIHSSVQLSEFHIKYFLYQILCGLKYIHSADVIHRDLKPGNILCTLNGCLKICDFGLARGIHAGFFKCHSTVQPHITNYVATRWYRAPELLLSNQPYSKSVDIWAVGCILAEFYARKPVFMGRDSMHQIFEIIKVLGTPDKDILIKFGTIKAWNLGKNSNNPVYKKIPWSNIFPFASHEAINLIESLLHWDSTHRLNVEQAISHPFLNEVRKPDDEPVCLQGPFDFTYESELNSMSKLRDYLVEEVKNFKTDLSSSSL
binding [1]: binds | binding [2]: binds | binding [3]: binds | binding [4]: binds | binding [5]: binds | binding [6]: no binding | binding [7]: binds | binding [8]: binds

B2: Ssp2^KAD-GST (Ssp2 residues 137-371 fused to glutathione-S-transferase) (domain or fragment, UniProt Q08646 137-371)
chain: KGKVYSEESEVVDEKTAGSQNPALLKTRSISLNDIPRGTGISSVLSQVRGGSLERIIVYRYDTPERSLHKVDLFFLNYEGAQSFMRYAKTNIFKVNGVQLKPEWIFLESTYENIMKEQSVNRIIEEEKFISRCLIVKKSSTTAMPNKSNLNKGQTLENIDIQELEKDFQNFGEVLEITPIVSRKLCVSIFFYDISSAMRAMEEYEQKGSYLYNKYFKTWTIWYGKDITDQPCIDL
binding [1]: binds | binding [2]: binds | binding [3]: binds | binding [4]: binds | binding [5]: binds | binding [6]: no binding | binding [7]: binds | binding [8]: binds
